Data as given in patent US20220047714A1.
These are yes or no findings as the source states them, for the method shown. Some results given as binding are weak or reduced against the parent protein; the word gives no strength.

Protein sequences, listed by entry. Tags and fused reporters are not part of them. Residues count along the entry.
UniProt P60568, residues 21-153: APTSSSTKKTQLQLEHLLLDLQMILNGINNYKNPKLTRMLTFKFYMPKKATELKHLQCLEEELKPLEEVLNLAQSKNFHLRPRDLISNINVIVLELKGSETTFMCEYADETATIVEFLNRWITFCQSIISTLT
UniProt Q15116, residues 25-167: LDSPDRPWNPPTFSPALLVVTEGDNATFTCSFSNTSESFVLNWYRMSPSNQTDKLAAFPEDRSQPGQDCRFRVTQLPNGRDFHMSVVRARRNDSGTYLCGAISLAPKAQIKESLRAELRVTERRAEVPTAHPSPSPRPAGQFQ

How the values were obtained:
[1] = biological target: human IL-2 (biotin-labeled) (human) (UniProt P60568); assay: HTRF
PD-1 (human) = PD-1 (human) (UniProt Q15116); assay: HTRF

B1: PD1-IL2-R06-E04 (scFv)
scFv: QVQLVQSGAEVKKPGASVKVSCKASGYTFTRYYIHWVRQAPGQGLEWMGWINAYNGDTNYAQKLQGRVTMTRDTSTSTVYMELSSLRSEDTAVYYCARDSYYYDSFDYWGQGTLVTVSSASGGGGSGGGGSGGGGSHASDIQMTQSPSSLSASVGDRVTITCRASQTITDWLAWYQQKPGKAPKLLIYGASNLQGGVPSRFSGSGSGTDFTLTISSLQPEDFATYYCQQYYSSWTFGQGTKVEIK
For B1, the binding [1] was “binds” and the binding (PD-1 (human)) was “binds”.
